According to paper PMC5966378:
Results are given in words; binding and its absence hold for the method and conditions named. Some entries that bind do so weakly or less than the wild type.

Amino acid sequences for entries named in this document (tags omitted).
UniProt P0A6Y8: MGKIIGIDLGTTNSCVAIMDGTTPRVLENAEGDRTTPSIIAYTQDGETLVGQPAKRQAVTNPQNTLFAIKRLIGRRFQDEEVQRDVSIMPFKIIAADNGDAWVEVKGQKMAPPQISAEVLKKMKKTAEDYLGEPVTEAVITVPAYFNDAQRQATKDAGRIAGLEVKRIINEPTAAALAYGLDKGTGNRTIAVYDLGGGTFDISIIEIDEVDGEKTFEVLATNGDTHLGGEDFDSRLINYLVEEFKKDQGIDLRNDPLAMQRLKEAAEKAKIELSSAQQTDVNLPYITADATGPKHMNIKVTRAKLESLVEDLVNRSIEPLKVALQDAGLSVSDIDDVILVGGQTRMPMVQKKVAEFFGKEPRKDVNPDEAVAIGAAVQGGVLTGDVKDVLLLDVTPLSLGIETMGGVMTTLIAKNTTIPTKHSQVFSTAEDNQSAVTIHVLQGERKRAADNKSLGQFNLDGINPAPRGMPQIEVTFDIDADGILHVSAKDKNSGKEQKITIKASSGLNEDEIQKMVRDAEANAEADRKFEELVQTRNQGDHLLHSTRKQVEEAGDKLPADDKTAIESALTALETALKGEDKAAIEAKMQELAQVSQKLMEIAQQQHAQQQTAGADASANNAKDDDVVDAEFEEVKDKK
UniProt P08622: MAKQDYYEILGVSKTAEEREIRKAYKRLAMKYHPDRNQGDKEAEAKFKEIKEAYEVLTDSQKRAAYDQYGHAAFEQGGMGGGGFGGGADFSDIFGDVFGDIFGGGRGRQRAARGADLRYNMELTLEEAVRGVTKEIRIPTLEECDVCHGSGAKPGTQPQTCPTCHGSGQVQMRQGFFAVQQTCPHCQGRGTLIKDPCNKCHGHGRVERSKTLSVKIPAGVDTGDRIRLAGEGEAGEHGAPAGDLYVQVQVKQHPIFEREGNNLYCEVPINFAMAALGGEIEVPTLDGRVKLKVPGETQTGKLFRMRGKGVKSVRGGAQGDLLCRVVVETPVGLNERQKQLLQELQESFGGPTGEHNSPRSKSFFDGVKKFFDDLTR

Molecular target: DnaK, purified (StressGen) (UniProt P0A6Y8)
Test: native gel or EMSA; both purified

binding: binds
Substance: DnaJ, purified (StressGen) (from UniProt P08622 1-376)
